{"source": "PubChem BioAssay AID1508600", "about": "(Functional Genomics Laboratory (NCATS/FGL), 2020)", "note": "Hit rate of the full screen: of about 53,000 sequences, about 3,700 (7%) were called active.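 How the source made its calls: active means gene knockdowns whose robust z-score for IL-1 alpha signal is at least 2 or at most -2, so actives lie on both sides; inactive means the rest.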 This is one part of the list.", "data": [{"test": "Components of the Cytosolic LPS Sensing Pathway: Gene Identification via Genome-wide siRNA Screen;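 further: robust z of the log signal after scaling to non-targeting control siRNA wells of the plate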", "details": "RAW264.7 macrophages, IL-1a HTRF, actives lie on both sides, screened at 100 nM (by protocol), cells primed 5 h with Pam3CSK4 first", "how_it_was_run": "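RAW264.7; siRNA 100 nM final, RNAiMAX, 48h 37 degrees C; Pam3CSK4 5 h; LipidA + TransIT-TKO 24 h; IL-1a HTRF; CellTiter-Glo viability; robust z vs negative-control median.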", "values": [{"sequence": "GCCCUGAGAAAAAGCUCAUTT against Vmn1r212", "z-score": "inactive: -1.49"}, {"sequence": "GGUGCUGAGUUGGUCUUAUTT against Tbc1d25", "z-score": "inactive: -0.264"}, {"sequence": "GCAGUGAUCCAUGAGCCUATT against Eif5a", "z-score": "active: 4.64"}, {"sequence": "CCUUGUACACGGAUUGAAUTT against Itga6", "z-score": "inactive: -0.192"}, {"sequence": "GCAAUUAGUCCCUAUUUACTT against Vps41", "z-score": "inactive: 0.979"}, {"sequence": "CCUUCUACCUCACCUUACGTT against Tmem186", "z-score": "inactive: -1.23"}, {"sequence": "GCUGUUAGCCUUAAAGUCATT against Hibch", "z-score": "inactive: 0.144"}, {"sequence": "GCAGUAACCGUGACCAGAUTT against Slc35a5", "z-score": "inactive: -0.32"}, {"sequence": "CGAAUUUACUUCAGACUUCTT against Crybg1", "z-score": "inactive: 0.168"}, {"sequence": "GCAAUGCAGUACUAAACUCTT against Coq8a", "z-score": "inactive: 0.654"}, {"sequence": "GGAGAUUUAUUAAACUGGATT against Ell2", "z-score": "inactive: 0.982"}, {"sequence": "GGAUAGAAUGGACUUUGAATT against Ulk2", "z-score": "inactive: 0.143"}, {"sequence": "GCUGAGGGUUGAUUAGUGGTT against H2-Bl", "z-score": "inactive: 0.608"}, {"sequence": "GGAGAGUCCUUCUGUGACUTT against Spsb3", "z-score": "inactive: -1.38"}, {"sequence": "GCCCAAUGUCUCAGAUUAUTT against Dgkg", "z-score": "inactive: 0.0684"}, {"sequence": "GGACUGGUAUUCAAAGAGGTT against Krt9", "z-score": "inactive: 0.83"}, {"sequence": "GGACCUCAUCAAGCUAUGUTT against Rbms3", "z-score": "inactive: -1.73"}, {"sequence": "GCUACAGCUAUAUCGCUAUTT against Cnot8", "z-score": "inactive: 0.625"}, {"sequence": "GGCAAUUUGGAUACCAGGATT against Zfp24", "z-score": "inactive: -0.563"}, {"sequence": "GCUUACCUGGUCUUGGGCATT against Dnajc30", "z-score": "inactive: 0.348"}, {"sequence": "GGUCUUCAACAACAUUAUCTT against Hid1", "z-score": "inactive: 1"}, {"sequence": "GGUUACCAAAAAAAGAGUUTT against Xrn1", "z-score": "inactive: 0.639"}, {"sequence": "CCGUUUCCCUCUAAAGAAATT against Mphosph6", "z-score": "inactive: 0.214"}, {"sequence": "GGUUGAAGGAGACAACAUUTT against Fzd6", "z-score": "inactive: 0.626"}, {"sequence": "GCUACUCUUACAAGCAAUATT against Rnf111", "z-score": "inactive: -0.368"}, {"sequence": "GGAGUUAAAUACUGAGUUUTT against Csnk1g3", "z-score": "inactive: 0.499"}, {"sequence": "GGCAGUUUCAAUGAAAGAATT against Cnn2", "z-score": "inactive: 0.705"}, {"sequence": "GGAUAUAAACGGGUUAACATT against Ltbp1", "z-score": "inactive: 0.297"}, {"sequence": "GUACUCUUCCUCACUGGGUTT against Tmem198", "z-score": "inactive: 1.21"}, {"sequence": "GGUUAAAAGACUGAAUGAATT against Rabep2", "z-score": "inactive: 0.134"}, {"sequence": "GGAUGAUUGUGUUUCGACUTT against Stoml1", "z-score": "inactive: 0.0827"}, {"sequence": "GGAUGAAGAGACUAAAAAUTT against Il23a", "z-score": "inactive: 0.922"}, {"sequence": "GCGAUGAUGAAAGCUCAGUTT against Atad1", "z-score": "active: -2.36"}, {"sequence": "GCUAUCAAGGGCAUGAUCCTT against Gabra3", "z-score": "inactive: -0.89"}, {"sequence": "GCGGCAAGUAUUAUUAUCATT against Cbx4", "z-score": "inactive: -1.58"}, {"sequence": "AGAGAGAUAUUGUUCAUCATT against Psg22", "z-score": "inactive: 0.11"}, {"sequence": "GGAAAAACAGUUCUUGGAGTT against Apeh", "z-score": "inactive: 0.466"}, {"sequence": "CCUGAUUAUUCUGAGAAAUTT against Adsl", "z-score": "inactive: 1"}, {"sequence": "CGGGAAUCCUCUGAAUUAATT against Pycr2", "z-score": "inactive: 0.297"}, {"sequence": "GGGAUCGAAUGGUUCAGGUTT against Osbpl9", "z-score": "inactive: 0.646"}, {"sequence": "GCAGGUAGCUAAAGAAAACTT against Rangrf", "z-score": "inactive: 0.831"}, {"sequence": "GCAAACCACUUACACUAAUTT against Spry4", "z-score": "inactive: -0.201"}, {"sequence": "CCAGUCGACUACUAUGCCATT against Sstr1", "z-score": "inactive: -0.161"}, {"sequence": "GGACGUAUAUCCUUUUAUGTT against Spaar", "z-score": "inactive: -0.151"}, {"sequence": "GGCAACCCUGAAGACAGCUTT against Cys1", "z-score": "inactive: 0.516"}, {"sequence": "GGCUGUGAUUGGCAAUCUATT against 6430548M08Rik", "z-score": "active: -3.04"}, {"sequence": "GGCAUUUUUACAGACCAGCTT against Apoc2", "z-score": "inactive: -0.734"}, {"sequence": "GGUCUGAGCUCUCAAAAUGTT against Neurod4", "z-score": "inactive: -0.137"}, {"sequence": "GGAUUAAAGGGUAACUUAGTT against Ccdc121", "z-score": "inactive: 0.441"}, {"sequence": "CCAAAAGACCAUUGUCGUCTT against Nmrk1", "z-score": "inactive: 0.443"}, {"sequence": "GGAAGAUGAAAUCUUCAAATT against Lysmd1", "z-score": "inactive: -0.244"}, {"sequence": "GCGCAAAGGUGAAACGUAGTT against E030011O05Rik", "z-score": "inactive: -0.17"}, {"sequence": "GCUACCUGUGCAAGUGAACTT against Selenoh", "z-score": "inactive: -0.402"}, {"sequence": "CGGCUUCUUAGGAAACUCUTT against Olfr358", "z-score": "inactive: -0.369"}, {"sequence": "GCCUUUAAGAAGUUGAUGCTT against Olfr1015", "z-score": "inactive: -0.0711"}, {"sequence": "GGUUGAUUACAGCAUCGGGTT against Cops7a", "z-score": "inactive: -0.466"}, {"sequence": "GGGUUCGAGGAAAAGGAAGTT against Acsf3", "z-score": "inactive: 0.65"}, {"sequence": "GGUUAAGCAGGAAAACAAGTT against Pygb", "z-score": "inactive: -1.07"}, {"sequence": "CGAAUUUGUAACACAUGGUTT against Tmeff1", "z-score": "inactive: 1.41"}, {"sequence": "GGAGAAAGAAGGGAUUCUCTT against Ensa", "z-score": "inactive: 0.419"}, {"sequence": "GGAACAGUUACGAAAAGUGTT against Vps37c", "z-score": "inactive: -1.03"}, {"sequence": "CCAACUGGCAUUUGAUGUGTT against Mical2", "z-score": "inactive: -0.16"}, {"sequence": "GGAUCCUGGUCCAAACUUUTT against Atraid", "z-score": "inactive: -1.52"}, {"sequence": "GGUGUAUUCCAGUUACAAATT against 2610002M06Rik", "z-score": "inactive: 0.422"}, {"sequence": "GGUCCUAGGCCGAUUCGAUTT against Gpsm1", "z-score": "inactive: 0.877"}, {"sequence": "CCUUUUCCCUAAUACGUAUTT against Pcyt1a", "z-score": "inactive: -0.25"}, {"sequence": "GCUAUGAUGUAGCCAGGACTT against Trnau1ap", "z-score": "inactive: -0.265"}, {"sequence": "CGAGUGUGAUACGUACUUCTT against Jag1", "z-score": "inactive: -0.46"}]}]}
